{
  "source": "patent US8912146B2",
  "about": "(University of Maryland, Baltimore, priority 2008, dated 2014)",
  "assay": "general procedure: Fmoc solid-phase peptide synthesis; 2ClTrt resin (alanyl 2-chlorotrityl resin); Rink Amide resin for 29; HATU/HOAt/DIPEA; BEP/HOAt/DIPEA for glycosylated Thr/Ser",
  "details": "whole synthesis, HPLC trace analysis at 227 nm",
  "data": [
    {"substance": "Galβ1-3GalNAcα-O-TVPAAVVVA", "values": [
      {"measurement": "final HPLC purity", "value": ">99", "unit": "%"}
    ]},
    {"substance": "Galβ1-3GalNAcα-O-TV-Pip-AAVVVA", "values": [
      {"measurement": "final HPLC purity", "value": ">99", "unit": "%"}
    ]},
    {"substance": "Galβ1-3GalNAcα-O-TVPAAVV", "values": [
      {"measurement": "final HPLC purity", "value": ">99", "unit": "%"}
    ]},
    {"substance": "Galβ1-3GalNAcα-O-TVPAAVVV", "values": [
      {"measurement": "final HPLC purity", "value": ">98", "unit": "%"}
    ]}
  ]
}
